Measurements taken from the supplement of paper PMC6411743.
± gives the standard deviation of the averaged measurements. This is a selection; strong and weak results do not stand in their true shares. Most entries show no effect beyond the scatter of the controls.

Sequences of proteins named here, by UniProt entry; tags and fusion partners are left off. A change or cut given only in a name is not applied to a line headed by its entry.
UniProt O43674, whole entry: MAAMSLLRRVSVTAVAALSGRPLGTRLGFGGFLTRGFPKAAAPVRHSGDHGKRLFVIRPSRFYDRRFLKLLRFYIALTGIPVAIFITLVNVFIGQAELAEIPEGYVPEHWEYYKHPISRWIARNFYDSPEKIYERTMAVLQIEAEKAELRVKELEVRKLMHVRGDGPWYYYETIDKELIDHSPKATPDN
UniProt P63027, whole entry, looked up: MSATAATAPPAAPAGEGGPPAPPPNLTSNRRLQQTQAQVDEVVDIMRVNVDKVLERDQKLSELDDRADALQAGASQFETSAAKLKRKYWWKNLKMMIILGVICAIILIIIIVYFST
UniProt O00214: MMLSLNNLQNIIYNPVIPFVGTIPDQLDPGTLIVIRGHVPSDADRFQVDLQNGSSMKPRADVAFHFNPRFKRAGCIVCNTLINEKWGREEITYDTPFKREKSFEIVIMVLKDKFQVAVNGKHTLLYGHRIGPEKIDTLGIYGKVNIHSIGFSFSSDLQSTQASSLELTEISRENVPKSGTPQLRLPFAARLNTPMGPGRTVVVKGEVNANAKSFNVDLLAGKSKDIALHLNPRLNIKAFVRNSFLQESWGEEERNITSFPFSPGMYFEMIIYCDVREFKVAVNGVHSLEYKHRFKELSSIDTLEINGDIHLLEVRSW
UniProt O95249: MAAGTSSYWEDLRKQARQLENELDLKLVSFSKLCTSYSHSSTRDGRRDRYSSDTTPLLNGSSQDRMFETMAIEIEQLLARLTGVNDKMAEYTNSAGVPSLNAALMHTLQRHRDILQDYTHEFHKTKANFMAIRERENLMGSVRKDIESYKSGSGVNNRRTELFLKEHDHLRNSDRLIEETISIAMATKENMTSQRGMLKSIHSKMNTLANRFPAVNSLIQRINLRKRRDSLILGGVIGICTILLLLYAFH
UniProt O75326: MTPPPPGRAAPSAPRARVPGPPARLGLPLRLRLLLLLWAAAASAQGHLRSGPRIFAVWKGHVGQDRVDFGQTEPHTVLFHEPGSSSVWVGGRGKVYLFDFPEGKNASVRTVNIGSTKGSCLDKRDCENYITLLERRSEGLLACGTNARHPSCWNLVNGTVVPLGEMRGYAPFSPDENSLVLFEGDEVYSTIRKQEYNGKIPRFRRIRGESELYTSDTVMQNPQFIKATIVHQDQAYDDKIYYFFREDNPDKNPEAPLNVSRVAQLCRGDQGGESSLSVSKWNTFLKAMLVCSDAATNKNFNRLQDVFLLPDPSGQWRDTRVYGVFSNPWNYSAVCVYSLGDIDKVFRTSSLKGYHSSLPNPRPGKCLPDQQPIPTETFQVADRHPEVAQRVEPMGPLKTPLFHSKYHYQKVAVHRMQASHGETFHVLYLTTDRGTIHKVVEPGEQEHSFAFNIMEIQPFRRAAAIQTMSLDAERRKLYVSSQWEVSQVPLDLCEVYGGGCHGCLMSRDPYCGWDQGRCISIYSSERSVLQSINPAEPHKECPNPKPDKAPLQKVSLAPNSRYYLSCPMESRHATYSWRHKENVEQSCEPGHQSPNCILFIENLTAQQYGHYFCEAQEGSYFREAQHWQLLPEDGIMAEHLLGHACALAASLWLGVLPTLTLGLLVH
UniProt E9PAV3, whole entry, looked up: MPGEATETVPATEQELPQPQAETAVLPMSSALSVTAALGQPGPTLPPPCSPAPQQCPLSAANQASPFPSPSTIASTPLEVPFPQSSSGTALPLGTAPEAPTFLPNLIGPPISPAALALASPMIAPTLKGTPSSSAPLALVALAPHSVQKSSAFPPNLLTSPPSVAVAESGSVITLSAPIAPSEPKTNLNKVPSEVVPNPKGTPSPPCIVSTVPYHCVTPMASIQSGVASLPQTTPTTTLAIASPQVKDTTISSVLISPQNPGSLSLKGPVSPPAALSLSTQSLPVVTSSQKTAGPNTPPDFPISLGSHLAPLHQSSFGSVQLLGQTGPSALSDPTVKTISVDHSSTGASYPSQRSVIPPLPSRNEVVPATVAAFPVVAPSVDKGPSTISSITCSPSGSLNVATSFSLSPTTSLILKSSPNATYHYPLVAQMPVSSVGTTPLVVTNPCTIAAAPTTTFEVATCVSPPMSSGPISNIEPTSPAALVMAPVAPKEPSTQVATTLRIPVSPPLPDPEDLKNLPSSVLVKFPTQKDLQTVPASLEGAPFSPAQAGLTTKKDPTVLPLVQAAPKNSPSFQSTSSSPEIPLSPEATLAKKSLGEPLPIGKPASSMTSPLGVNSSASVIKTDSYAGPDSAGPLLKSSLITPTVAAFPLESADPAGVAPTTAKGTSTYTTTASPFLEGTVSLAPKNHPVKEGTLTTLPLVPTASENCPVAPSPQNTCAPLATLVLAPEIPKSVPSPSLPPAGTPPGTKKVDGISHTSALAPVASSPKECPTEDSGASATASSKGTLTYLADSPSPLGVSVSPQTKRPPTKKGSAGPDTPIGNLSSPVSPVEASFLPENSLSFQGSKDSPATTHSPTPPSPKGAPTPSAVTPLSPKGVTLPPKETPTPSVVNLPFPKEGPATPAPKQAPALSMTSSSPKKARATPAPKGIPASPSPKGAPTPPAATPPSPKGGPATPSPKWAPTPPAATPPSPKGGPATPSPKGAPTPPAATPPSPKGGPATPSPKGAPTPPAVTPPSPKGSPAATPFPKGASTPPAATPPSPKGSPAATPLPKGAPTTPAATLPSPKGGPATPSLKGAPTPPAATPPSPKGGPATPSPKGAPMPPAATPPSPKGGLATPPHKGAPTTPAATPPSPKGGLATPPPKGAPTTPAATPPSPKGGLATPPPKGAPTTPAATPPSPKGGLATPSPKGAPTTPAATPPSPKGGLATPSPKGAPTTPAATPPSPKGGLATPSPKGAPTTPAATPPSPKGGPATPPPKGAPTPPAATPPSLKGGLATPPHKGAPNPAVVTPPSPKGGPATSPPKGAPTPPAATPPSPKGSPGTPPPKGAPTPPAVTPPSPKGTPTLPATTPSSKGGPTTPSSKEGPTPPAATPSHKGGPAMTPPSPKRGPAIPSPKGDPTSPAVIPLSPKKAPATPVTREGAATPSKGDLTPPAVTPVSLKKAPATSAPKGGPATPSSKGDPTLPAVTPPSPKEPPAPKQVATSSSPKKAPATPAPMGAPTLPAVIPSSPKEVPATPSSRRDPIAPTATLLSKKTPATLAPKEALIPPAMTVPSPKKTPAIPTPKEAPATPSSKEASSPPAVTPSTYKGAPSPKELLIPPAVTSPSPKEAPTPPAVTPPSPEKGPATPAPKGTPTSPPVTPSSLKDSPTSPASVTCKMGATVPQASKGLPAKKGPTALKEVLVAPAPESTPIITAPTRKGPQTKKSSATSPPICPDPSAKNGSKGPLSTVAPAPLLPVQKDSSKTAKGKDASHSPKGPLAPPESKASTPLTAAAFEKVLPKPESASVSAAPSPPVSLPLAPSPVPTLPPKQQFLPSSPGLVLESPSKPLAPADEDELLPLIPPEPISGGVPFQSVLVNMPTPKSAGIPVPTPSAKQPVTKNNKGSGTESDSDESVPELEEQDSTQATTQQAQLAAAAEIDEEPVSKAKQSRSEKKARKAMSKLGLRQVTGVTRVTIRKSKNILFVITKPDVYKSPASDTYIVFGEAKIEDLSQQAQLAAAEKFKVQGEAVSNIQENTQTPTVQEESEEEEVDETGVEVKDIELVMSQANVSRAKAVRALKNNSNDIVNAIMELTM
UniProt Q8N4H5: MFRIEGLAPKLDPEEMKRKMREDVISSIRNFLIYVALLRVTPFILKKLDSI
UniProt Q9HC77: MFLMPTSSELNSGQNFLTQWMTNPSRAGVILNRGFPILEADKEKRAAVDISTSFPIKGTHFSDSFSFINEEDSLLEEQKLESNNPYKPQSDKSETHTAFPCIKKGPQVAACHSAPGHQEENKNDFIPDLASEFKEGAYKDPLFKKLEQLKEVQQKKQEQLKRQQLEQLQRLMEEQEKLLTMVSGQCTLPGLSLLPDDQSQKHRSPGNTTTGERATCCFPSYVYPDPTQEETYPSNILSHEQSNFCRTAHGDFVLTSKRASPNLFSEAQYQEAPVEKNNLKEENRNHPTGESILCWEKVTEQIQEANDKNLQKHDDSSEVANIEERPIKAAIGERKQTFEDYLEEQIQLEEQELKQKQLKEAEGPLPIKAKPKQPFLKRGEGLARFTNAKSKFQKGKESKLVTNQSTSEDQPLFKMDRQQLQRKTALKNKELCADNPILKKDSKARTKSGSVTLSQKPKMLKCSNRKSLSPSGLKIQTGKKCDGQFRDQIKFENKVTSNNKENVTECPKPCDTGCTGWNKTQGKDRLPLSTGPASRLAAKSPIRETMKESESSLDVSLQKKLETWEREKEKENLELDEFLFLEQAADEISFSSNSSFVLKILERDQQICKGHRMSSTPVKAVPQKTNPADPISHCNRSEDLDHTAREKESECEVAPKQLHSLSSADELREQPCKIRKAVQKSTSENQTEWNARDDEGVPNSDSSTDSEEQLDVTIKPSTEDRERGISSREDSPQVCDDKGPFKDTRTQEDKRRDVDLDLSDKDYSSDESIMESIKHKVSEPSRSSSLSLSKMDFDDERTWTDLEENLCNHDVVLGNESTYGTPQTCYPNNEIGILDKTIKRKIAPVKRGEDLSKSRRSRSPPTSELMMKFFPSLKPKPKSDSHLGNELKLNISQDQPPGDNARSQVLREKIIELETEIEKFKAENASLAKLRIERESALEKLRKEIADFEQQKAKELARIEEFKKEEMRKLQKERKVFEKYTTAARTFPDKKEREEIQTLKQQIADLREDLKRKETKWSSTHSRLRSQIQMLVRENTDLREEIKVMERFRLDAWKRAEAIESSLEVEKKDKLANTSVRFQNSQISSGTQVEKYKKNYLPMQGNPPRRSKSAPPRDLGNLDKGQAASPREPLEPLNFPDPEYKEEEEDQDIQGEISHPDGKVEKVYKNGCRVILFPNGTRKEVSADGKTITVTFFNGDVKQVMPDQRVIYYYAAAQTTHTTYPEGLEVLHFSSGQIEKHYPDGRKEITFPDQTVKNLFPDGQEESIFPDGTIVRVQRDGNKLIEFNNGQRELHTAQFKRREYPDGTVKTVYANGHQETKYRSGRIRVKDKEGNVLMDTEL
UniProt O94868: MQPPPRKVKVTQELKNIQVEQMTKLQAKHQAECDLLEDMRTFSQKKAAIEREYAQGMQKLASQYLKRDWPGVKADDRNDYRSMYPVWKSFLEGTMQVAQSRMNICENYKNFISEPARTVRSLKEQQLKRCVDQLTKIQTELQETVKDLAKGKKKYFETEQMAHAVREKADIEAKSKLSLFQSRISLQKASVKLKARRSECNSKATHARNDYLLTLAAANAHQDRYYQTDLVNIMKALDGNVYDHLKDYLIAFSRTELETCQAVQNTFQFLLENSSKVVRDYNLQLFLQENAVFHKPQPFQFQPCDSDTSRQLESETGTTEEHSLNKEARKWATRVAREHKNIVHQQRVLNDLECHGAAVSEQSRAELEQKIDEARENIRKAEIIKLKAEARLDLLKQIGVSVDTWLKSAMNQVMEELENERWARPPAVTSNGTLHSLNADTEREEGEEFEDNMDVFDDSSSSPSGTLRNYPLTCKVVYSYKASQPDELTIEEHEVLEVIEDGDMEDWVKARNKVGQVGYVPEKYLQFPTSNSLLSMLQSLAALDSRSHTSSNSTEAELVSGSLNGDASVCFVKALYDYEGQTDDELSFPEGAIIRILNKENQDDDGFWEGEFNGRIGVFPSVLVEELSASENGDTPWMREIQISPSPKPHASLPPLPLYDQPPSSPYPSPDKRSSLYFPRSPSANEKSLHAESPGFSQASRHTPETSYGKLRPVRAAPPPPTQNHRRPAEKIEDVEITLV
UniProt P23588, whole entry: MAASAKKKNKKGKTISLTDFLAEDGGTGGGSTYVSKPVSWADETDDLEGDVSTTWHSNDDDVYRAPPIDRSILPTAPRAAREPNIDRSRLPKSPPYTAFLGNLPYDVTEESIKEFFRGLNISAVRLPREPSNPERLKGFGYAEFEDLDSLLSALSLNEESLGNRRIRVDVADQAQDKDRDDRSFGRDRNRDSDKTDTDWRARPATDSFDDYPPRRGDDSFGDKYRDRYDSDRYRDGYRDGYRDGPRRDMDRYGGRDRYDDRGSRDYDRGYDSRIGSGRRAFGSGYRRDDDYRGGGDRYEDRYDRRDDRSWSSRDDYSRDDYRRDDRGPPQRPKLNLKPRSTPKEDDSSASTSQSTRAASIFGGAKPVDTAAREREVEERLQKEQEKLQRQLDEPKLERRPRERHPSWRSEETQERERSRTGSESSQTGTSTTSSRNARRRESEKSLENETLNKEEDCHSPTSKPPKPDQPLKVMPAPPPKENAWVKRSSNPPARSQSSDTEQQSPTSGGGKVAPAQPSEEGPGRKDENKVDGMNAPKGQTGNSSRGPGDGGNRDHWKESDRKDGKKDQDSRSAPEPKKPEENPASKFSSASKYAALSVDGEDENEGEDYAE
UniProt P08962, whole entry: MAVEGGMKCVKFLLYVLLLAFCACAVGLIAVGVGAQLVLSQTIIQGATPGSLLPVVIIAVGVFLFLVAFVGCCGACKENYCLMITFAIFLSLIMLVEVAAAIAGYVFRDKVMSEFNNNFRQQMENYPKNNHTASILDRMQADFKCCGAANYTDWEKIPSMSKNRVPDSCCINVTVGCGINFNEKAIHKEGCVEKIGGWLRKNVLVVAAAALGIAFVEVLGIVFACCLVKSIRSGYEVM

Compound: Nc1ncnc2c1ncn2[C@@H]1O[C@H](COP(=O)(O)OP(=O)(O)OP(=O)(O)O)[C@@H](O)[C@H]1O [adenosine triphosphate]
Assay: NP40-soluble protein abundance relative to vehicle (solubility fold change) (ratio); higher = more soluble protein in presence of ATP
In short: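 Each value is a fold change relative to the detergent-processed vehicle, calculated per replicate from vsn-normalised intensities. Jurkat crude lysate received eight concentrations (0.1 to 10 mM) for 10 min at room temperature and 3 min at 37 °C, then was solubilised in 0.8% NP40 with benzonase (60 min, 4 °C). The ultracentrifuged supernatant was TMT-labelled and run by LC-MS/MS in three independent experiments.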

Target	NP40-soluble protein abundance (concentration: 0.1mM)	NP40-soluble protein abundance (concentration: 0.5mM)
G3V5N8 and related entries (UniProt Q9HBF4)	1.02 ± 0.044	0.941 ± 0.081
F2Z3D9 and related entries (UniProt O43709)	1 ± 0.035	1.07 ± 0.086
E7EWP0 and related entries (UniProt O43674)	0.905 ± 0.042	0.905 ± 0.048
F5H7T0 and related entries (UniProt Q96S38)	0.994 ± 0.11	0.975 ± 0.074
F8W1T6 and related entries (UniProt Q15434)	0.893 ± 0.14	0.896 ± 0.022
F8VX10 and related entries (UniProt Q9H9L4)	0.965 ± 0.069	1 ± 0.057
F8W1A4 and related entries (UniProt P54819)	0.948 ± 0.061	0.956 ± 0.031
E9PMR4 and related entries (UniProt P48509)	0.985 ± 0.073	0.879 ± 0.03
E9PF32 and related entries (UniProt A2RUS2)	0.996 ± 0.072	0.986 ± 0.015
F8W6N3 and related entries (UniProt Q92560)	0.963 ± 0.043	1.03 ± 0.074
F8WET0 and related entries (UniProt Q8IW19)	1.12 ± 0.15	1.15 ± 0.19
E7EPN9 and related entries (UniProt Q9Y520)	0.971 ± 0.026	1.02 ± 0.013
F5H5G1 and related entries (UniProt Q13449)	0.991 ± 0.069	0.914 ± 0.022
G3XAI2 and related entries (UniProt P07942)	0.967 ± 0.19	0.98 ± 0.15
F8WCA0 and related entries (UniProt P63027+J3QRU4+L7N2F9+F8WCA0)	0.839 ± 0.13	0.844 ± 0.25
F5GXF9 and related entries (UniProt P51825)	0.992 ± 0.11	0.984 ± 0.14
E7EQR4 and related entries (UniProt P15311)	1.03 ± 0.06	1.03 ± 0.075
E9PMH5 and related entries (UniProt Q13490)	1.04 ± 0.13	1.05 ± 0.065
F2Z2I2 and related entries (UniProt Q16875)	1.03 ± 0.058	1.04 ± 0.057
E7ESC7 and related entries (UniProt Q7L5Y9)	0.98 ± 0.057	0.996 ± 0.07
F8W543 and related entries (UniProt P55209)	0.958 ± 0.027	0.941 ± 0.032
F6V2D4 and related entries (UniProt O00214)	0.98 ± 0.026	1.01 ± 0.057
E7ETZ4 and related entries (UniProt Q9Y6E2)	0.98 ± 0.018	1.003 ± 0.0092
E9PJF5 and related entries (UniProt Q9HCU9)	0.919 ± 0.18	0.953 ± 0.16

Target	NP40-soluble protein abundance (concentration: 0.1mM)	NP40-soluble protein abundance (concentration: 0.5mM)
F6SFZ6 and related entries (UniProt Q99571)	0.925 ± 0.076	0.975 ± 0.14
E9PFB9 and related entries (UniProt Q5T9S5)	0.928 ± 0.051	0.945 ± 0.028
E9PCW1 and related entries (UniProt O95249)	0.952 ± 0.051	0.935 ± 0.072
F5H5I6 and related entries (UniProt Q12849)	1.01 ± 0.04	1.03 ± 0.042
F5GYX3 and related entries (UniProt O75326)	0.913 ± 0.089	0.965 ± 0.031
E5RHW4 and related entries (UniProt O94905)	0.968 ± 0.085	1.02 ± 0.14
F6SS63 and related entries (UniProt Q8N5C8)	1.01 ± 0.12	0.94 ± 0.19
E9PAV3-2|E9PAV3 and related entries (UniProt Q13765+H0YHX9+F8VZJ2+E9PAV3)	0.952 ± 0.083	1.01 ± 0.073
G3V3G9 (UniProt P40855)	1.02 ± 0.05	1.02 ± 0.033
E9PJZ7 and related entries (UniProt Q13136)	1 ± 0.018	0.982 ± 0.024
E5KP25 and related entries (UniProt Q9UIF7)	0.951 ± 0.044	0.957 ± 0.046
G3V1P3 and related entries (UniProt Q969J3+G3V1P3)	0.984 ± 0.034	0.971 ± 0.074
E9PMJ2 and related entries (UniProt Q9BPY3)	0.977 ± 0.024	0.969 ± 0.011
E9PGT1 (UniProt Q15631)	0.993 ± 0.033	0.961 ± 0.03
E9PJ55 (UniProt Q9NUJ3)	1.05 ± 0.083	1.02 ± 0.068
E9PC90 and related entries (UniProt P14635)	0.981 ± 0.14	0.957 ± 0.04
F8W8Z9 and related entries (UniProt Q8N4H5)	0.822 ± 0.16	0.845 ± 0.25
E9PMC9 and related entries (UniProt Q7Z589)	0.936 ± 0.12	0.968 ± 0.032
E7EUU4 and related entries (UniProt Q04637)	1.02 ± 0.018	1.11 ± 0.049
E7EMK3 and related entries (UniProt Q14254)	1.02 ± 0.044	1.02 ± 0.092
G5E977 and related entries (UniProt Q6XQN6)	1.04 ± 0.044	0.946 ± 0.033
F5H5U2 and related entries (UniProt Q8NHQ9)	1.02 ± 0.031	1.06 ± 0.022
F8W689 and related entries (UniProt P48382)	0.946 ± 0.035	0.954 ± 0.0086
F8W8G5 and related entries (UniProt P10242)	1 ± 0.012	1.1 ± 0.068

Record cards, from the list above.
F8W8G5 and related entries (UniProt P10242) as listed: NP40-soluble protein abundance (concentration: 0.1mM): 1 ± 0.012; NP40-soluble protein abundance (concentration: 0.5mM): 1.1 ± 0.068
F5GYX3 and related entries (UniProt O75326) as listed: NP40-soluble protein abundance (concentration: 0.1mM): 0.913 ± 0.089; NP40-soluble protein abundance (concentration: 0.5mM): 0.965 ± 0.031
F8W689 and related entries (UniProt P48382) as listed: NP40-soluble protein abundance (concentration: 0.1mM): 0.946 ± 0.035; NP40-soluble protein abundance (concentration: 0.5mM): 0.954 ± 0.0086
E5KP25 and related entries (UniProt Q9UIF7) as listed: NP40-soluble protein abundance (concentration: 0.1mM): 0.951 ± 0.044; NP40-soluble protein abundance (concentration: 0.5mM): 0.957 ± 0.046

(continued)

Target	NP40-soluble protein abundance (concentration: 0.1mM)	NP40-soluble protein abundance (concentration: 0.5mM)
E9PLY5 and related entries (UniProt Q9UPN3+H3BQK9+H3BPE1+E9PLY5)	1.012 ± 0.0078	1.03 ± 0.047
E9PKF6 and related entries (UniProt Q5H9R7)	1.01 ± 0.06	1.01 ± 0.054
E7ERK9 and related entries (UniProt Q9UI10)	1.005 ± 0.0094	0.988 ± 0.057
G5E9C0 and related entries (UniProt Q9HB58)	1.03 ± 0.067	1.145 ± 0.0083
F8VXC8 and related entries (UniProt Q8TAQ2)	1.01 ± 0.052	1.08 ± 0.092
F8WF69 and related entries (UniProt P09496)	0.924 ± 0.04	0.945 ± 0.05
F2Z2W7 and related entries (UniProt Q8IZ69)	0.987 ± 0.031	1.02 ± 0.02
F8WEA6 and related entries (UniProt O75439)	1 ± 0.06	1.05 ± 0.089
E9PKQ5 and related entries (UniProt Q9GZT6)	0.972 ± 0.035	0.9768 ± 0.0061
E7ERS3 and related entries (UniProt Q86VM9)	0.96 ± 0.053	1.05 ± 0.05
E7EMM4 and related entries (UniProt Q13510)	0.956 ± 0.063	0.923 ± 0.073
F5H8D7 and related entries (UniProt P18887)	1.02 ± 0.041	1.07 ± 0.057
E5RK69 and related entries (UniProt P08133)	0.985 ± 0.031	0.99 ± 0.034
F6UZG9 and related entries (UniProt Q8NFZ0)	1.06 ± 0.21	0.961 ± 0.05
E9PIM6 and related entries (UniProt P04216)	0.831 ± 0.021	0.897 ± 0.16
F5H6I7 and related entries (UniProt Q6DD88)	1.03 ± 0.051	1.06 ± 0.058
E9PFK9 and related entries (UniProt Q9UJ41)	1 ± 0.019	0.993 ± 0.027
E9PK80 and related entries (UniProt Q9NTG7)	0.921 ± 0.013	0.92136 ± 0.00017
F5H5D3 and related entries (UniProt Q9BQE3)	0.989 ± 0.093	0.964 ± 0.17
E7EQ69 and related entries (UniProt Q9GZZ1)	0.9163 ± 0.00094	0.947 ± 0.073
E9PNW4 and related entries (UniProt P13987)	0.904 ± 0.097	0.88 ± 0.14
E7EQZ4 and related entries (UniProt Q16637)	0.92 ± 0.14	0.951 ± 0.13
E7EU96 and related entries (UniProt P68400)	1.05 ± 0.066	1.03 ± 0.077
F6VUX8 and related entries (UniProt Q9HC77)	0.944 ± 0.039	0.949 ± 0.03

Target	NP40-soluble protein abundance (concentration: 0.1mM)	NP40-soluble protein abundance (concentration: 0.5mM)
E9PMR6 and related entries (UniProt Q9NZN5)	1.04 ± 0.014	1.01 ± 0.081
E9PGN6 and related entries (UniProt Q9UI43+E9PGN6)	0.986 ± 0.094	1.02 ± 0.083
E5RHG8 and related entries (UniProt Q15369)	1.07 ± 0.097	0.971 ± 0.064
G3XA86 and related entries (UniProt Q9Y2Z9)	1.08 ± 0.061	1.02 ± 0.024
F8VXG7 and related entries (UniProt Q99590)	1.04 ± 0.045	1.26 ± 0.069
E7ET39 and related entries (UniProt Q8NDZ4)	1.03 ± 0.06	1.03 ± 0.15
E9PGT3 and related entries (UniProt Q15418)	1.05 ± 0.1	1.07 ± 0.098
E7EW59 and related entries (UniProt Q9Y467)	1.02 ± 0.035	1.05 ± 0.12
F5H8H2 and related entries (UniProt Q03426)	1.03 ± 0.068	1.05 ± 0.09
F5H365 and related entries (UniProt Q15436)	1.05 ± 0.075	1.02 ± 0.031
E9PJ04 and related entries (UniProt Q13435)	0.999 ± 0.056	1.06 ± 0.084
E5RJD8 and related entries (UniProt O75347)	0.907 ± 0.055	0.951 ± 0.063
E7EQ34 and related entries (UniProt O14653+I3L4Z6+E7EQ34)	0.992 ± 0.074	1.04 ± 0.073
E7EWW9 and related entries (UniProt P09488)	0.897 ± 0.072	0.932 ± 0.11
E9PG19 and related entries (UniProt O94868)	1.01 ± 0.025	1 ± 0.048
E9PC47 and related entries (UniProt P53667)	0.975 ± 0.057	0.867 ± 0.12
G3V1A6 and related entries (UniProt P57764)	1.05 ± 0.051	1.05 ± 0.064
E9PM92 and related entries (UniProt O00193+E9PM92)	0.816 ± 0.14	0.799 ± 0.096
E7EX17 and related entries (UniProt P23588)	0.986 ± 0.02	0.987 ± 0.039
F6Y5H0 and related entries (UniProt P29558)	0.977 ± 0.024	0.981 ± 0.024
F8VV56 and related entries (UniProt P08962)	0.9001 ± 0.0062	0.803 ± 0.071
